Assay results from patent US20210380556A1, “HETEROARYLAZOLE COMPOUND AND PEST CONTROL AGENT” (Nippon Soda Co., Ltd., priority 2018, published 2021).
Some of these results come from one statement about several compounds together.

Legend:
Type in all cases: in vivo
[1] = tested on: Aphis craccivora; assay: Test Example 5: efficacy on Aphis craccivora (spray on black-eyed peas); details: 125 ppm; sprayed to black-eyed peas with nymphs; after 4 days
[2] = tested on: Plutella xylostella; assay: Test Example 3: efficacy on Plutella xylostella (cabbage leaf dip); details: 125 ppm; cabbage leaves dipped 30 seconds; second instar larvae; after 3 days
Procedure: 5 parts of the heteroaryl azole compound of the present invention, 93.6 parts of dimethylformamide, and 1.4 parts of polyoxyethylene alkyl aryl ether were mixed and dissolved to prepare emulsion (I) containing 5% of the active ingredient.
Insecticidal rate (%)=(The number of dead insects/The number of tested insects)×100
The emulsion (I) was diluted with water such that the concentration of the compound of the present invention was 125 ppm. Cabbage leaves were dipped in the dilution for 30 seconds. The resulting cabbage leaves were placed in a petri dish. Five second instar larvae of Plutella xylostella were released thereto. The petri dish was placed in a thermostat chamber having a temperature of 25° C. and a humidity of 60%. Life and death were determined after 3 days from the release of the insects, and the insecticidal rate was calculated. The test was conducted in duplicate.

[3] = tested on: Phyllotreta striolata adults; assay: Test Example 7: efficacy on Phyllotreta striolata, 2 ppm spray; details: sprayed to Qing geng cai seedlings, after 7 days
[4] = tested on: Phyllotreta striolata adults; assay: Test Example 6: efficacy on Phyllotreta striolata, 125 ppm spray; details: sprayed to Qing geng cai seedlings, after 7 days

Row | Compound | insecticidal rate [1] | insecticidal rate [2] | insecticidal rate [3] | insecticidal rate [4]
1 | CCS(=O)(=O)c1cccnc1-c1ncc(C(F)C(F)(F)C(F)(F)C(F)(F)C(F)(F)F)n1C (stereo not drawn) [b-11] | ≥ 80% | – | – | –
2 | CCS(=O)(=O)c1cc(-c2cc(F)cc(F)c2)cnc1-c1ncc(C(F)(F)C(F)(F)C(F)(F)F)n1C [b-60] | ≥ 80% | ≥ 80% | – | –
3 | CCS(=O)(=O)c1cc(-c2ncccc2F)cnc1-c1ncc(C(F)(F)C(F)(F)C(F)(F)F)n1C [b-55] | ≥ 80% | ≥ 80% | ≥ 80% | ≥ 80%
4 | CCS(=O)(=O)c1cnc(-c2ncn(C)n2)nc1-c1ncc(C(F)(F)C(F)(F)C(F)(F)F)n1C [a-1] | – | – | ≥ 80% | ≥ 80%
5 | CCS(=O)(=O)c1cc(-c2ncccn2)cnc1-c1ncc(C(F)C(F)(C(F)(F)F)C(F)(F)F)n1C (stereo not drawn) [b-31] | – | ≥ 80% | ≥ 80% | ≥ 80%
6 | CCS(=O)(=O)c1cc(C2(c3ccccn3)CC2)cnc1-c1ncc(C(F)C(F)(C(F)(F)F)C(F)(F)F)n1C (stereo not drawn) [b-57] | ≥ 80% | – | – | –
7 | CCS(=O)(=O)c1cc(Br)cnc1-c1ncc(C(F)C(F)(F)C(F)(F)F)n1C (stereo not drawn) [b-23] | ≥ 80% | – | – | –
8 | CCS(=O)(=O)c1cc(-c2ccccn2)cnc1-c1ncc(C(F)C(F)(C(F)(F)F)C(F)(F)F)n1C (stereo not drawn) [b-43] | ≥ 80% | ≥ 80% | ≥ 80% | ≥ 80%
9 | CCS(=O)(=O)c1cc(-c2ccccn2)cnc1-c1ncc(C(Cl)C(F)(C(F)(F)F)C(F)(F)F)n1C (stereo not drawn) [b-44] | ≥ 80% | ≥ 80% | – | –
10 | CCS(=O)(=O)c1cc(C(C)(C)C#N)cnc1-c1ncc(C(F)(F)C(F)(F)C(F)(F)F)n1C [b-42] | ≥ 80% | ≥ 80% | – | –
11 | CCS(=O)(=O)c1cc(C2CC2)cnc1-c1ncc(C(F)(F)C(F)(F)C(F)(F)C(F)(F)F)n1C [b-1] | ≥ 80% | ≥ 80% | ≥ 80% | ≥ 80%
12 | CCS(=O)(=O)c1ccc(-n2cncn2)nc1-c1ncc(C(Cl)C(F)(F)C(F)(F)C(F)(F)C(F)(F)F)n1C (stereo not drawn) [b-13] | – | ≥ 80% | – | –
13 | CCS(=O)(=O)c1cc(-c2cncnc2)cnc1-c1ncc(C(F)C(F)(F)C(F)(F)F)n1C (stereo not drawn) [b-35] | ≥ 80% | – | – | –
14 | CCS(=O)(=O)c1cc(-n2ccc(C(F)(F)F)n2)cnc1-c1ncc(C(F)(F)C(F)(F)C(F)(F)F)n1C [b-36] | ≥ 80% | ≥ 80% | – | –
15 | CCSc1cccnc1-c1ncc(C(F)(F)C(F)(F)C(F)(F)C(F)(F)F)n1C [b-2] | ≥ 80% | – | – | –
16 | CCS(=O)(=O)c1cc(NC(=O)C2CC2)cnc1-c1ncc(C(F)(F)C(F)(F)C(F)(F)F)n1C [b-41] | ≥ 80% | ≥ 80% | – | –
17 | CCS(=O)(=O)c1cc(C2CC2)cnc1-c1ncc(C(F)(F)C(F)(F)F)n1C [b-26] | ≥ 80% | – | – | –
18 | CCS(=O)(=O)c1ccc(-n2cncn2)nc1-c1ncc(C(F)C(F)(F)C(F)(F)C(F)(F)C(F)(F)F)n1C (stereo not drawn) [b-10] | – | ≥ 80% | – | –
19 | CCS(=O)(=O)c1cc(-c2ccccn2)cnc1-c1ncc(C(F)(F)C(F)(F)C(F)(F)C(F)(F)F)n1C [b-59] | ≥ 80% | – | ≥ 80% | ≥ 80%
20 | CCS(=O)(=O)c1cc(C2CC2)cnc1-c1ncc(COCC(F)(F)C(F)(F)F)n1C [b-70] | ≥ 80% | – | – | –
21 | CCS(=O)(=O)c1ccc(-n2cncn2)nc1-c1ncc(C(F)(F)C(F)(F)C(F)(F)F)n1C [b-16] | ≥ 80% | ≥ 80% | – | –

Row | Compound | insecticidal rate [1] | insecticidal rate [2] | insecticidal rate [3] | insecticidal rate [4]
22 | CCS(=O)(=O)c1cc(C2(C#N)CC2)cnc1-c1ncc(C(F)C(F)(C(F)(F)F)C(F)(F)F)n1C (stereo not drawn) [b-56] | – | ≥ 80% | – | –
23 | CCS(=O)(=O)c1cc(C2CC2)cnc1-c1ncc(C(Cl)C(F)(C(F)(F)F)C(F)(F)F)n1C (stereo not drawn) [b-53] | ≥ 80% | – | – | –
24 | CCS(=O)(=O)c1cnc(-n2ncnc2N)nc1-c1ncc(C(F)(F)C(F)(F)C(F)(F)C(F)(F)F)n1C [a-6] | – | – | ≥ 80% | ≥ 80%
25 | CCS(=O)(=O)c1ccc(N)nc1-c1ncc(C(F)(F)C(F)(F)C(F)(F)C(F)(F)F)n1C [b-12] | ≥ 80% | – | – | –
26 | CCS(=O)(=O)c1cc(-c2ncccn2)cnc1-c1ncc(C(F)C(F)(F)C(F)(F)C(F)(F)C(F)(F)F)n1C (stereo not drawn) [b-64] | ≥ 80% | ≥ 80% | – | –
27 | CCS(=O)(=O)c1cc(OC(C)(C)C(F)(F)F)cnc1-c1ncc(C(F)C(F)(C(F)(F)F)C(F)(F)F)n1C (stereo not drawn) [b-69] | ≥ 80% | ≥ 80% | – | ≥ 80%
28 | CCS(=O)(=O)c1cc(C=O)cnc1-c1ncc(C(F)C(F)(F)C(F)(F)F)n1C (stereo not drawn) [b-40] | ≥ 80% | – | – | –
29 | CCS(=O)(=O)c1cc(-c2ncccn2)cnc1-c1ncc(C(F)(F)C(F)(F)F)n1C [b-22] | ≥ 80% | ≥ 80% | – | ≥ 80%
30 | CCS(=O)(=O)c1cc(C2CC2)cnc1-c1ncc(C(F)C(F)(F)C(F)(F)C(F)(F)C(F)(F)F)n1C (stereo not drawn) [b-63] | ≥ 80% | – | – | –
31 | CCS(=O)(=O)c1cc(-c2ncccn2)cnc1-c1ncc(C(Cl)C(F)(F)C(F)(F)F)n1C (stereo not drawn) [b-32] | ≥ 80% | – | – | –
32 | CCS(=O)(=O)c1cc(C2CC2)cnc1-c1ncc(COCC(F)(F)C(F)(F)C(F)(F)F)n1C [b-71] | ≥ 80% | – | – | –
33 | CCS(=O)(=O)c1cnc(-c2ncn(C)n2)nc1-c1ncc(C(F)(F)C(F)(F)C(F)(F)C(F)(F)F)n1C [a-2, 5-(ethylsulfonyl)-2-(1-methyl-1H-1,2,4-triazol-3-yl)-4-(1-methyl-5-(perfluorobutyl)-1H-imidazol-2-yl)pyrimidine] | – | – | ≥ 80% | ≥ 80%
34 | CCS(=O)(=O)c1cc(-n2cncn2)cnc1-c1ncc(C(F)(F)C(F)(F)C(F)(F)F)n1C [b-45] | ≥ 80% | ≥ 80% | – | –
35 | CCS(=O)(=O)c1cc(-n2ccccc2=O)cnc1-c1ncc(C(F)(F)C(F)(F)C(F)(F)F)n1C [b-38] | ≥ 80% | – | – | –
36 | CCS(=O)(=O)c1cc(-c2ncccn2)cnc1-c1ncc(C(F)(F)C(F)(F)C(F)(F)F)n1C [b-19, 2-(5-(ethylsulfonyl)-6-(1-methyl-5-(perfluoropropyl)-1H-imidazol-2-yl)pyridin-3-yl)pyrimidine] | – | – | ≥ 80% | ≥ 80%
37 | CCS(=O)(=O)c1cc(-c2ncccn2)cnc1-c1nnc(C(F)(F)C(F)(F)C(F)(F)C(F)(F)F)n1C [c-5] | – | – | – | ≥ 80%
38 | CCS(=O)(=O)c1cc(-c2ncccc2C#N)cnc1-c1ncc(C(F)(F)C(F)(F)C(F)(F)F)n1C [b-54] | ≥ 80% | ≥ 80% | – | –
39 | CCS(=O)(=O)c1cc(Oc2ccccn2)cnc1-c1ncc(C(F)(F)C(F)(F)C(F)(F)F)n1C [b-37] | – | ≥ 80% | – | ≥ 80%
40 | CCS(=O)(=O)c1cc(-c2ccccn2)cnc1-c1ncc(C(F)C(F)(F)C(F)(F)C(F)(F)C(F)(F)F)n1C (stereo not drawn) [b-66] | ≥ 80% | – | – | –
41 | CCS(=O)(=O)c1cc(-c2ccccn2)cnc1-c1ncc(C(F)C(F)(F)C(F)(F)F)n1C (stereo not drawn) [b-27] | ≥ 80% | ≥ 80% | – | –
42 | CCS(=O)(=O)c1cc(C2CC2)cnc1-c1ncc(C(F)C(F)(F)C(F)(F)F)n1C (stereo not drawn) [b-25] | ≥ 80% | ≥ 80% | – | –
